Data on two sequences can be found in PMC12933668.

In one series the test system is Ppbbx24-del. Put plainly: EMSA. The conditions noted are these: Beyotime biotin EMSA kits GS008/GS009, manufacturer protocol, pH and temperature not given, recombinant protein. (In general: Mobility shift assays separate free from complexed probe on a gel.)
The target of a further series is T1, PpBBX24 (UniProt D9ZIX0).
T1 sequence (looked up, limits assumed): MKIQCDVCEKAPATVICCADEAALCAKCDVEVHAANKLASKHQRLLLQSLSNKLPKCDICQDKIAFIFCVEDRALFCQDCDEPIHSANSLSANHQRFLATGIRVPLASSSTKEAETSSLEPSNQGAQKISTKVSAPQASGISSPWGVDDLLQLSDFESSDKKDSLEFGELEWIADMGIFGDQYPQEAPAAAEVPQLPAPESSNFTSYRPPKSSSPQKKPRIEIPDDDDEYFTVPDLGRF
Put plainly: EMSA. The conditions noted are these: Beyotime biotin EMSA kits GS008/GS009, manufacturer protocol, pH and temperature not given, recombinant protein.

For at least one entry, the source does not settle the construct or the ends of the probe. A negative result means that nothing was seen under these conditions. For some of these results: Protein sequences can lack the tags named with them.

With “CTCAGCTACGCCCTCGAAAACTCAGGCTGAATTAACCAAA (double strand) [PpMYB5 Mutant Probe]”, the binding result in the series on Ppbbx24-del and in the series with PpBBX24 was “no binding” throughout.
Consider “CTCAGCTACGCCCTCGACACGTGAGGCTGAATTAACCAAA (double strand) [PpMYB5 Probe (G-box)]”, for which the binding result with Ppbbx24-del (label: biotin) and in the series with PpBBX24 (label: biotin) was “binds” throughout.
